SMILES strings stand for the structures. The list shows a part of the results. Many values rest on one well or one pass, so single values are uncertain.

The test system of this experiment is Geomyces destructans. As to the kind of experiment: growth inhibition relative to DMSO control; higher = stronger growth inhibition. As to conditions: 10 µM; 15 °C; incubation time 10 days.
Turning to `Cn1cnc2c1c(=O)[nH]c(=O)n2C`, the growth inhibition is -28.9%.
Under `CC1OC(OC2C(O)COC(OC3C(C)OC(OC4C(OC(=O)C56CCC(C)(C)CC5C5=CCC7C8(C)CCC(OC9OC(CO)C(O)C(O)C9O)C(C)(C)C8CCC7(C)C5(C)CC6O)OCC(O)C4O)C(O)C3O)C2O)C(O)C(O)C1O` (configuration not stated) stands 1.71%.
Under `CC1=NN(c2ccccc2)C(=O)C1` stands -6.05%.
In the case of `CCN(CC)CCNC(=O)c1cc(Cl)c(N)cc1OC`, the growth inhibition was -6.04%.
As to `CC1=CC(=O)C(C(C)C)=CC1=O`, the growth inhibition is -9.44%.
For `OCc1cccnc1`, the growth inhibition is -14.4%.
In the case of `CN(C)CCC=C1c2ccccc2COc2ccccc21`, the growth inhibition is -22%.
In the case of `CC(C)[N+](C)(CCOC(=O)C1c2ccccc2Oc2ccccc21)C(C)C`, the growth inhibition is -15.7%.
Under `CCCc1occc(=O)c1/C=C/O` stands 2.46%; under `Cc1cccc(C)c1OCC(C)N` (configuration not stated), -3.5%; under `CC(C)(C)NCC(O)COc1cccc2nc(O)[nH]c12` (configuration not stated), -11.7%.
With `Cc1cc(=O)[nH]c(=S)[nH]1`, the growth inhibition was -4.37%.
Take `NC[C@@H]1O[C@H](O[C@H]2[C@@H](O)[C@H](O[C@@H]3[C@@H](O)[C@H](N)C[C@H](N)[C@H]3O[C@H]3O[C@H](CO)[C@@H](O)[C@H](O)[C@H]3N)O[C@@H]2CO)[C@H](N)[C@@H](O)[C@@H]1O`: the growth inhibition is -5.04%.
In the case of `COc1cc(C)c2c(c1C=O)Oc1c(c(C)c(O)c3c1C(O)OC3=O)OC2=O` (configuration not stated) it was -12.2%; in that of `COc1ccccc1OCC(O)CO` (configuration not stated), 1.31%; in that of `Cc1c(N(C)C)c(=O)n(-c2ccccc2)n1C`, 7.2%.
Under `Oc1c(Cl)cc(Cl)c(Cl)c1Cc1c(O)c(Cl)cc(Cl)c1Cl` stands 2.07%; under `CC(=O)N1CCCC1C(=O)O` (configuration not stated), -9.57%; under `CCOC(=O)C1=C(COCCN)NC(C)=C(C(=O)OC)C1c1ccccc1Cl` (configuration not stated), -41.6%.
Under `CCCCCCCCCCCCCCC(C(=O)O)C(O)(CC(=O)OC)C(=O)O` (configuration not stated) stands -5.92%; under `Oc1ccc(/C=C/c2cc(O)cc(O)c2)cc1`, -0.965%; under `CN(C)C(=O)C(CCN1CCC(O)(c2ccc(Cl)cc2)CC1)(c1ccccc1)c1ccccc1`, -5.9%.
Consider `Nc1nc2[nH]cnc2c(=S)[nH]1`, for which the growth inhibition is -11.2%.
Under `O=C1c2c(O)cccc2C([C@@H]2O[C@H](CO)[C@@H](O)[C@H](O)[C@H]2O)c2cc(CO)cc(O)c21` (some centres not stated) stands -2.5%; under `CC(C(=O)O)c1ccc2c(c1)[nH]c1ccc(Cl)cc12` (configuration not stated), -21.1%.
In the case of `O=C(O)C1CCCNC1` (configuration not stated) it was -8.21%; in that of `COc1cc([S+](C)[O-])ccc1-c1nc2cccnc2[nH]1` (configuration not stated), -24.5%.
In the case of `C[C@H]1O[C@@H](O[C@H]2[C@@H](O)C[C@H](O[C@H]3[C@@H](O)C[C@H](O[C@H]4CC[C@@]5(C)[C@H](CC[C@@H]6[C@@H]5C[C@@H](O)[C@]5(C)[C@@H](C7=CC(=O)OC7)CC[C@]65O)C4)O[C@@H]3C)O[C@@H]2C)C[C@H](O)[C@@H]1O` it was 3.4%; in that of `O=C(OCC(O)CO)c1ccccc1Nc1ccnc2cc(Cl)ccc12` (configuration not stated), -13%; in that of `CC(C(=O)O)c1ccc(-c2ccccc2)c(F)c1` (configuration not stated), 25.1%.
As to `Cc1cc(O)c2c(c1)C(=O)c1cccc(O)c1C2=O`, the growth inhibition stood at 1.59%.
As for `O=c1ccc2cc(O)c(O)cc2o1`, the growth inhibition is -4.75%.
Under `C[C@H](CCC(=O)O)[C@H]1CC[C@H]2[C@@H]3[C@H](O)C[C@@H]4C[C@H](O)CC[C@]4(C)[C@H]3C[C@H](O)[C@]12C` stands -1.87%; under `CC(=O)OC1CCC2(C)C(=CCC3C2CCC2(C)C(C(C)CCCC(C)C)CCC32)C1` (configuration not stated), -17.7%; under `CC(C)=CCC[C@@H](C)[C@H]1CC[C@@]2(C)C3=C(CC[C@]12C)[C@@]1(C)CC[C@H](O)C(C)(C)[C@@H]1CC3`, 2.91%.
In the case of `Oc1cc(O)c2c(c1)O[C@H](c1ccc(O)c(O)c1)[C@H](O)C2`, the growth inhibition is -20.5%.
Under `COc1ccc2c(c1)c(CC(=O)O)c(C)n2C(=O)c1ccc(Cl)cc1` stands 3.91%.
In the case of `O=C(O)[C@@H](O)[C@H](O)[C@H](O)[C@@H](O)C(=O)O` it was 0.397%; in that of `O=C(C1CCCCC1)N1CC(=O)N2CCc3ccccc3C2C1` (configuration not stated), -20.6%.
For `COc1ccc(-c2cc(=O)c3c(O)c(OC)c(O[C@@H]4O[C@H](CO[C@@H]5O[C@@H](C)[C@H](O)[C@@H](O)[C@H]5O)[C@@H](O)[C@H](O)[C@H]4O)cc3o2)cc1`, the growth inhibition was -7.04%.
As to `Cn1c(=O)[nH]c(=O)c2[nH]cnc21`, the growth inhibition was -11%.
For the compound `COc1ccc2c(c1OC)C(=O)O[C@@H]2[C@H]1c2c(cc3c(c2OC)OCO3)CCN1C`, the growth inhibition was -10.5%.
Under `O=C1C=C(O)C(=O)c2ccccc21` stands -3.52%; under `C=C1c2c(Cl)ccc(O)c2C(=O)C2=C(O)[C@]3(O)C(=O)C(C(N)=O)=C(O)[C@@H](N(C)C)[C@@H]3[C@@H](O)[C@H]12.O=C(O)c1cc(S(=O)(=O)O)ccc1O`, -12.2%.
Under `CNC[C@H](O)c1ccc(O)c(O)c1` stands 0.0859%; under `COC(=O)C[C@H]1C(C)(C)C2(O)OC34CC2C(=O)[C@]1(C)C3CC[C@]1(C)C4=CC(=O)O[C@H]1c1ccoc1` (stereo partly drawn) [8beta-HYDROXYCARAPIN, 3,8-HEMIACETAL], -5.07%.
`Cn1c(=O)c2nc(C3CCCC3)[nH]c2n(C)c1=O`: the growth inhibition was -9.57%.
In the case of `C=CC(C)(O)CCC1C(=C)CC(OC(C)=O)C2C(C)(C)CCCC12C` (configuration not stated), the growth inhibition is -5.73%.
Take `CN1CCN(CCCN2c3ccccc3Sc3ccc(C(F)(F)F)cc32)CC1`: the growth inhibition was -27.2%.
Consider `COc1ccc(OC)c(C(O)CNC(=O)CN)c1` (configuration not stated), for which the growth inhibition was -6.93%.
In the case of `CC[C@H](C)[C@H](N)C1=N[C@H](C(=O)N[C@@H](CC(C)C)C(=O)N[C@H](CCC(=O)O)C(=O)N[C@H](C(=O)N[C@H]2CCCCNC(=O)[C@H](CC(N)=O)NC(=O)[C@@H](CC(=O)O)NC(=O)[C@H](Cc3cnc[nH]3)NC(=O)[C@@H](Cc3ccccc3)NC(=O)[C@H]([C@@H](C)CC)NC(=O)[C@@H](CCCN)NC2=O)[C@@H](C)CC)CS1`, the growth inhibition was -35.1%.
Under `O=C(CCc1ccc(O)cc1)c1c(O)cc(O)cc1O` stands 2.85%; under `C=CC(C1=CC(=O)C(OC)=CC1=O)c1ccc(OC)cc1` (configuration not stated), -6.42%; under `C[C@H]1[C@H](C)CC[C@]2(CO)CC[C@]3(C)C(=CC[C@@H]4[C@@]5(C)CC[C@H](O)C(C)(C)[C@@H]5CC[C@]43C)[C@H]12`, -6.72%.
Under `COc1ccc(-c2cc(=O)c3cc(OC)ccc3o2)cc1` stands 11.1%; under `CN(C)CCOC(C)(c1ccccc1)c1ccccn1` (configuration not stated), -7.97%; under `CC1(C)CC[C@]2(C)CC[C@]3(C)C(=CC[C@@H]4[C@@]5(C)CC[C@H](O)C(C)(C)[C@@H]5CC[C@]43C)[C@@H]2C1` [beta-AMYRIN], 3.94%.

The record behind these values is the supplement of paper PMC3047530.
